# PubChem BioAssay AID2685 (National Center for Advancing Translational Sciences (NCATS), 2010)
# Screen size: about 320,000 compounds; about 2,100 (0.66%) were called active. Inconclusive means that the source gave no clear call. Such entries were picked first, then a sample of the others. Calls follow the shape of the dose curve; as a rule, active = well fitted inhibition curve with a large enough effect in the signal ratio, with a control signal flat (not every such curve was filed as active); inconclusive = small, poorly fitted or top-dose-only effect, or effect the other way, or a change in a side signal; inactive = flat fitted curve, though single readings scatter; the % refers to the signal ratio. Potencies of inconclusive entries are doubtful fits and often do not repeat. Where a SMILES comes first, the peptide text is derived from it. The star is where a group is joined. Tos = Cc1ccc(S(=O)(=O)*)cc1
# Experiment: qHTS Assay for Lipid Storage Modulators in Drosophila S3 Cells
# Conditions: BODIPY lipid droplet fluorescence, 18-24 h, cells fed with added oleic acid; lipid storage change, negative = inhibition: at 46.1 µM (top of the series) unless noted
# Summary of the method: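 Drosophila S3 cells got compounds at several concentrations plus oleic acid (400 uM solution). Laser-scanning cytometry with 488 nm excitation read lipid droplets at 500-530 nm and cells at 575-640 nm. Percent activity was relative to 20 uM Triacsin C.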
# % is scaled to controls: 0 for no effect and ±100 for the full control effect; potency is read from the fitted curve at half-maximal effect.
SMILES,Potency,"lipid storage change, negative = inhibition"
CC1CCC2C(=O)N(c3cc(Cl)ccc3OC(=O)c3ccco3)C(=O)C2C1 (configuration not stated),"inconclusive: 2.31 µM [falling, full curve]",
O=C(C1CCC(=O)N(C2CC2)C1)N1CCC(Oc2cccc(F)c2)CC1 (configuration not stated),"inconclusive: 29.1 µM [activator, single point]",
NC(=O)C1Cc2ccccc2CN1S(=O)(=O)c1ccc(Cl)s1 (configuration not stated),"inconclusive: 0.13 µM [activator, single point]",
Cc1ccc(CC(=O)NCCS(=O)c2ccc(Cl)cc2)cc1 (configuration not stated),,inconclusive: -33.7%
CCC(C(=O)NC(C)CCc1ccccc1)n1nc(C)n2c(cc3occc32)c1=O (configuration not stated),"inconclusive: 0.651 µM [activator, single point]",
COc1cc(NC(=O)c2cccs2)c(OC)cc1NC(=O)Cc1ccccc1,,inconclusive: -100%
CCCCCN(C(=O)CCC(=O)OCCOc1ccccc1Cl)c1c(N)n(CCCC)c(=O)[nH]c1=O,,inconclusive: 11.3%
Cc1cccc(-c2nn(-c3ccccc3)cc2C(=O)Nc2cccc(S(=O)(=O)NC3=NCCC3)c2)c1,,inconclusive
Cc1ccc(O)c(N=Cc2sc3ccccc3c2Cl)c1,"inconclusive: 6.51 µM [rising, partial curve]",
COc1ccc2nc(NC(=O)Cc3ccc(OC)c(S(=O)(=O)N4CCOCC4)c3)sc2c1,,inconclusive: -22.2%
Cc1c(C(=O)N/N=C/c2cccnc2)sc(=S)n1C,,inconclusive: -137%
CCSc1nn2c(=O)c3ccccc3nc2s1,"inconclusive: 0.0065 µM [falling, full curve, poor fit]",
COc1ccc(N(CC(=O)NC(C)(C)C)C(=O)CCC(=O)Nc2nccs2)cc1,,inconclusive: -0.463%
CN(C)CCCN(C(=O)CCOc1ccccc1)c1nc2ccc(F)cc2s1,"inconclusive: 29.1 µM [cytotoxic, single point]",
O=C(Nc1ccc(-c2nc3ccccc3o2)cc1)c1cccnc1,"inconclusive: 23.1 µM [falling, single point]",
COc1ccc(-n2c(Cc3cccn3C)nnc2SCC(=O)Nc2cccc(NC(C)=O)c2)cc1,,inconclusive: 31.8%
CCOc1ccc(NC(=O)C2CCC(C)(C(=O)O)C2(C)C)cc1 (configuration not stated),,inconclusive: -23.1%
NNC(=O)CS(=O)(=O)CS(=O)(=O)CC(=O)NN,,inconclusive: 4.32%
Cc1cc(C(=O)Nc2ccc(S(=O)(=O)N3CCCC3)cc2)cs1,"inconclusive: 5.17 µM [activator, partial curve]",
COc1ccccc1OCc1ccc(C(=O)Nc2ccccc2)cc1,"inconclusive: 29.1 µM [falling, single point]",
Cn1c2ccccc2c2ncn(Cc3ccco3)c(=O)c21,,inconclusive: 51%
Cc1cc(C)nc(N/C(=N/S(=O)(=O)Cc2ccccc2)Nc2ccccc2)n1,,inconclusive: 21%
CCn1c2ccccc2c2cc(NC(=O)c3ccccc3[N+](=O)[O-])ccc21,,inconclusive: 24.9%
CCc1c(O)nc(SCC(=O)Nc2ccccc2OC)n(-c2ccccc2C)c1=O,,inactive
COc1cc(S(=O)(=O)NCc2ccc3c(c2)OCO3)ccc1Cl,"inconclusive: 0.0046 µM [falling, full curve, poor fit]",
COc1ccc(C2/C(=C(/O)c3ccc(C)cc3)C(=O)C(=O)N2c2ccccn2)cc1OC (configuration not stated),,inactive

SMILES,Potency,"lipid storage change, negative = inhibition"
Cc1ccc(S(=O)(=O)N[C@@H](CO)C(=O)N[C@@H](Cc2ccc(O)cc2)C(=O)O)cc1 (Tos-Ser-Tyr-OH),,inconclusive: 10.7%
Cc1c(Cl)cccc1NC(=O)CNc1cccc(S(=O)(=O)N(C)C)c1,,inconclusive: 33.7%
O=C(O)[C@@H]1CCCN1C(=O)CCc1c[nH]c2ccccc12,,inconclusive: 100%
Cn1ccc(C(=O)Nc2sc3c(c2C#N)CCC3)n1,,inconclusive: 44.7%
Cc1ncoc1C(=O)N1CCCC(C(=O)c2ccc(C(F)(F)F)cc2)C1 (configuration not stated),,inconclusive: -31%
O=C(O)c1ccc(/C=C/C(=O)c2ccc3c(c2)OCCCO3)cc1,"inconclusive: 0.116 µM [falling, partial curve, poor fit]",
CC1CCc2c(nc3ncnn3c2N2CC(C)OC(C)C2)C1 (configuration not stated),,inconclusive: 17.4%
CCOC(=O)C1C(=O)NC(N2CCCCC2)=NC1c1ccccc1 (configuration not stated),,inconclusive: -80.9%
Cc1cc(C)cc(NC(=O)Nc2ccccc2N2CCCCC2)c1,,inconclusive: -19.1%
CCN1CCc2c(OCC(=O)N3CCc4ccccc43)cccc2C1=O,,inconclusive: 25%
CC(O)CNc1nc2c(c(=O)n(C)c(=O)n2C)n1C/C=C/c1ccccc1 (configuration not stated),,inconclusive: 20.5%
COc1cccc2c(=O)cc(C)n(CC(=O)Nc3ccc(C)c(C)c3)c12,,inconclusive: -2.85%
Cc1ccc2cc(C)c(N3CCN(c4ccccn4)CC3)nc2c1,"inconclusive: 2.31 µM [activator, partial curve]",
O=C(NCc1csc(-c2ccccc2)n1)c1ccco1,"inconclusive: 29.1 µM [falling, single point]",
O=C(c1ccc([N+](=O)[O-])cc1)N(Cc1ccc(Cl)cc1)N1C(=O)CCCC1=O,"inconclusive: 4.11 µM [activator, partial curve, poor fit]",
Cc1ccccc1Cn1nc(C)c(NC(=O)c2sc3ccccc3c2Cl)c1C,,inconclusive: -22.5%
CN1CCN(c2ccc(S(=O)(=O)N3CCCCC3)cc2NC(=O)c2ccc(F)cc2F)CC1,,inconclusive: 33%
NC(N)=NS(=O)(=O)c1ccc(NC(=S)NC(=O)c2ccccc2)cc1,,inconclusive: 18.7%
O=[N+]([O-])c1ccc(OCc2cn([C@@H](CO)c3ccccc3)nn2)c(Br)c1,,inconclusive: 14.9%
O=C(NCCN1CCOCC1)c1ccc(CS(=O)(=O)c2c(Cl)cccc2Cl)o1,,inconclusive: 3.8%
COC(=O)c1c(NC(=O)CSc2nc(-c3ccco3)cc(C(F)(F)F)n2)sc2c1CCCC2,,inconclusive: 26.5%
O=C(Cc1ccc(Cl)cc1)NNC(=S)NC(=O)c1cccnc1,,inconclusive: -20.7%
Cc1ccccc1N(C(=O)c1snc(C(N)=O)c1N)C(C(=O)NC1CCCCC1)c1ccc(O)cc1 (configuration not stated),,inconclusive: 48%
CC1C(=O)O[C@@H]2C[C@@H](C)[C@@H]3CCC(=O)[C@@]3(C)[C@@H](O)[C@H]12 (some centres not stated),,inconclusive: -18.7%
Cc1ccc(NC(=O)C(=O)NNC(=O)c2cccs2)cc1,,inconclusive: 12.9%
CN(C)/C=C/C(=O)c1cc(N2CCOCC2)ccc1[N+](=O)[O-],,inconclusive: -30.1%

# Fetched by compound from above, four records:
SMILES,Potency,"lipid storage change, negative = inhibition"
COc1cc(S(=O)(=O)NCc2ccc3c(c2)OCO3)ccc1Cl,"inconclusive: 0.0046 µM [falling, full curve, poor fit]",
O=C(Cc1ccc(Cl)cc1)NNC(=S)NC(=O)c1cccnc1,,inconclusive: -20.7%
CCC(C(=O)NC(C)CCc1ccccc1)n1nc(C)n2c(cc3occc32)c1=O (configuration not stated),"inconclusive: 0.651 µM [activator, single point]",
CC1C(=O)O[C@@H]2C[C@@H](C)[C@@H]3CCC(=O)[C@@]3(C)[C@@H](O)[C@H]12 (some centres not stated),,inconclusive: -18.7%

# Following part

SMILES,Potency,"lipid storage change, negative = inhibition"
Cc1cccnc1CCNC(=O)CCc1nnc(-c2ccccc2)o1,,inconclusive: -3.6%
Cc1noc(C)c1S(=O)(=O)N1CCC(C(=O)N2CCC(N3CCCCC3)CC2)CC1,,inconclusive: 64.3%
Cc1nn(Cc2ccc(C(=O)N/N=C/c3ccncc3)o2)c(C)c1Cl,,inconclusive: 26.5%
Cc1nc(N2CCOCC2)nc(OCCN2CCOCC2)c1[N+](=O)[O-],,inconclusive: 42.7%
CC(O)c1nc2ccccc2n1CC(=O)Nc1ccc(F)cc1Cl (configuration not stated),,inconclusive: 0.514%
CC1(C)CC(=O)C=C(N2CCNCC2)C1,,inconclusive: -19.3%
CC(=O)c1cc2c(cc1N(C(=O)Cn1nnc3ccccc31)C(C(=O)NCCC(C)C)c1cccnc1)OCO2 (configuration not stated),,inconclusive: 0.994%
O=C(CCCCCNC(=S)Nc1ccccc1)C[N+](=O)[O-],"inconclusive: 0.58 µM [falling, single point]",
CCN(CC)C(=O)COc1ccc2c3c(c(=O)oc2c1C)CCCC3,,inconclusive: 24.2%
CC(=O)NNC(=S)NCCc1ccccc1,,inactive
COc1cc(C=O)ccc1OCC(=O)N1CCOCC1,,inconclusive: -23.2%
O=C(NCCCN1CCCC1=O)c1cn(-c2ccccc2)nc1-c1ccccc1,,inconclusive: 25%
O=C(c1cnn2c(C(F)F)cc(C3CC3)nc12)N1CCOCC1,,inconclusive: 8.34%
O=c1[nH]c2cc(Cl)cc(Cl)c2[nH]c1=O,,inconclusive: 13.4%
CC1Cc2ccccc2N1C(=O)c1nn(C)cc1Br (configuration not stated),,inconclusive: 36.4%
COc1ccc(CC(=O)Nc2cc(S(=O)(=O)N3CCCC3)ccc2Cl)c(OC)c1,,inconclusive: 22.6%
CC(C)OCCCN(C)C1CCN(S(=O)(=O)c2ccc(-c3ccc(=O)[nH]n3)s2)CC1,,inconclusive: -7%
O=C(CO/N=C/c1ccccc1OC(F)F)NCc1ccco1,"inconclusive: 29.1 µM [activator, single point]",
CC1CC(C)(C)CC2(C1)NC(=O)N(CC(=O)N1CCN(S(=O)(=O)c3cccs3)CC1)C2=O (configuration not stated),"inconclusive: 0.082 µM [falling, full curve, poor fit]",
CC(Cc1cccs1)NC(=S)Nc1ccc(F)cc1 (configuration not stated),"inconclusive: 29.1 µM [rising, single point]",
Cc1cc(NC(=O)COC(=O)c2cccc(S(=O)(=O)N(C)C3CCCCC3)c2)no1,"inconclusive: 20.6 µM [falling, single point]",
CC(C)[C@H](NS(=O)(=O)c1cccc(Cl)c1)C(=O)OCC(=O)NC(=O)CN1CCCC1=O,,inconclusive: -0.441%
CCOc1cccc(C2C(C(=O)c3ccc(C)o3)=C(O)C(=O)N2Cc2ccccc2)c1 (configuration not stated),,inconclusive: 139%
Cc1cnc(C(=O)OCC(=O)N(C(C)C)C(C)C)cn1,,inconclusive: -68.1%
COC(=O)C1C(=O)C2=C(CC1C)NC(C)=C(C(=O)OCCOc1ccccc1)C2c1ccc(C)o1 (configuration not stated),,inconclusive: -22.6%
